Results deposited as PubChem BioAssay AID1259308 (NCATS, 2017)
Shown is an unselected part of about 59,000 reagents. Over the whole deposit, about 1,510 (2.6%) were called active. 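Calls use total luciferase alone and ignore viability, so some active siRNAs may act by altering cell number.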 Reagents against one gene are numbered here. Further read-outs or replicates are left out here.

- Purpose: 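Knock-downs that increase output of a recombinant reporter protein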 (primary screen)
- System: human HEK293 embryonic kidney cells stably expressing firefly luciferase (HEK-CMV-Luc2-Hygro)
- Reagents: single siRNA against human genes, 0.8 pmol siRNA per well
- Time to read-out: 72 h
- Detection: 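Reporter luminescence and viable-cell signal on separate replicate plates, given as percent of non-targeting control and median/MAD z-scores, plus per-cell luciferase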
- Direction: total luciferase, z-score: higher = more reporter protein produced
- Hit rule: 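An siRNA counts as active if its total luciferase robust z-score exceeds 3; genes with two or more such siRNAs out of three were retested with fresh siRNAs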
- Calls: active = raised luciferase; inactive = no rise

gene knocked down | reagent | total luciferase, z-score | call
FLVCR2 (FLVCR choline and putative heme transporter 2) | 1 | 1.56 | inactive
FLVCR2 (FLVCR choline and putative heme transporter 2) | 2 | 2.36 | inactive
FLVCR2 (FLVCR choline and putative heme transporter 2) | 3 | 0.234 | inactive
CSTF1 (cleavage stimulation factor subunit 1) | 1 | -0.429 | inactive
CSTF1 (cleavage stimulation factor subunit 1) | 2 | 0.179 | inactive
CSTF1 (cleavage stimulation factor subunit 1) | 3 | 0.699 | inactive
CCDC186 (coiled-coil domain containing 186) | 1 | -0.218 | inactive
CCDC186 (coiled-coil domain containing 186) | 2 | -1.83 | inactive
CCDC186 (coiled-coil domain containing 186) | 3 | -0.213 | inactive
SYCP1 (synaptonemal complex protein 1) | 1 | -0.128 | inactive
SYCP1 (synaptonemal complex protein 1) | 2 | 0.241 | inactive
SYCP1 (synaptonemal complex protein 1) | 3 | -0.19 | inactive
DEF6 (DEF6 guanine nucleotide exchange factor) | 1 | 1.8 | inactive
DEF6 (DEF6 guanine nucleotide exchange factor) | 2 | -0.815 | inactive
DEF6 (DEF6 guanine nucleotide exchange factor) | 3 | -1.15 | inactive
AKR1B15 (aldo-keto reductase family 1 member B15) | 1 | 7.83 | active
AKR1B15 (aldo-keto reductase family 1 member B15) | 2 | 1.34 | inactive
AKR1B15 (aldo-keto reductase family 1 member B15) | 3 | 0.23 | inactive
RPS23 (ribosomal protein S23) | 1 | -1.67 | inactive
RPS23 (ribosomal protein S23) | 2 | -1.93 | inactive
RPS23 (ribosomal protein S23) | 3 | -2.72 | inactive
GPR161 (G protein-coupled receptor 161) | 1 | -0.252 | inactive
GPR161 (G protein-coupled receptor 161) | 2 | -0.274 | inactive
GPR161 (G protein-coupled receptor 161) | 3 | 0.0761 | inactive
TMEM182 (transmembrane protein 182) | 1 | 0.0323 | inactive
TMEM182 (transmembrane protein 182) | 2 | 2.58 | inactive
TMEM182 (transmembrane protein 182) | 3 | 0.334 | inactive
MGST2 (microsomal glutathione S-transferase 2) | 1 | -0.275 | inactive
MGST2 (microsomal glutathione S-transferase 2) | 2 | -1.22 | inactive
MGST2 (microsomal glutathione S-transferase 2) | 3 | 0.0484 | inactive
GAR1 (GAR1 ribonucleoprotein) | 1 | -1.1 | inactive
GAR1 (GAR1 ribonucleoprotein) | 2 | 2.63 | inactive
GAR1 (GAR1 ribonucleoprotein) | 3 | -1.03 | inactive
ZNF236 (zinc finger protein 236) | 1 | -0.812 | inactive
ZNF236 (zinc finger protein 236) | 2 | 0.3 | inactive
ZNF236 (zinc finger protein 236) | 3 | -0.547 | inactive
S100A13 (S100 calcium binding protein A13) | 1 | -1.72 | inactive
S100A13 (S100 calcium binding protein A13) | 2 | -0.155 | inactive
S100A13 (S100 calcium binding protein A13) | 3 | 1.06 | inactive
GLA (galactosidase alpha) | 1 | 0.0588 | inactive
GLA (galactosidase alpha) | 2 | 1.55 | inactive
GLA (galactosidase alpha) | 3 | -1.3 | inactive
CXCR6 (C-X-C motif chemokine receptor 6) | 1 | 2.44 | inactive
CXCR6 (C-X-C motif chemokine receptor 6) | 2 | -0.389 | inactive
CXCR6 (C-X-C motif chemokine receptor 6) | 3 | 1.85 | inactive
FCHSD2 (FCH and double SH3 domains 2) | 1 | 0.681 | inactive
FCHSD2 (FCH and double SH3 domains 2) | 2 | 0.142 | inactive
FCHSD2 (FCH and double SH3 domains 2) | 3 | 0.131 | inactive
SETD3 | 1 | 0.68 | inactive
SETD3 | 2 | -0.615 | inactive
SETD3 | 3 | -0.716 | inactive
SETD3 | 4 | -0.0414 | inactive
SETD3 | 5 | -0.148 | inactive
SETD3 | 6 | 0.555 | inactive
LOC643855 (G1 to S phase transition pseudogene) | 1 | -0.0466 | inactive
LOC643855 (G1 to S phase transition pseudogene) | 2 | 0.863 | inactive
LOC643855 (G1 to S phase transition pseudogene) | 3 | 2.7 | inactive

Hits, among the entries above:
gene knocked down | reagent | total luciferase, z-score | call
AKR1B15 (aldo-keto reductase family 1 member B15) | 1 | 7.83 | active
